Experimental data: paper PMC12040169 (PLOS Biology, 2025)
The other results are listed elsewhere or left out.

System: T1, CTL2-GFP (C. trachomatis L2/434/Bu, GFP-expressing)
T1 construct: L2/434/Bu, GFP-expressing
Set-up: species or system HeLa; Intracellular C. trachomatis growth in HeLa cells, bulk GFP fluorescence relative to DMSO
Settings: bulk GFP, single well; 28.5 h, 10 µM; inhibitor

| Compound | % of control remaining [%] |
| --- | --- |
| O=C(Nc1ccc2[nH]c(=O)[nH]c2c1)c1ccc2[nH]ccc2c1 [CBK149083] | 98.8881 |
| CC(C)[C@H](CO)Nc1nccnc1-c1ccccc1CO [CBK037408] | 113.595 |
| CNC(=O)C1/C(=N\O)c2ccccc2N1C(C)=O (stereo not drawn) [CBK006569] | 105.748 |
| Cc1nc(NCCc2cnc(=O)n(C)c2O)cc(C2CCOC2)n1 (stereo not drawn) [CBK307559] | 98.3416 |
| CCN(CC)CC(C)C(O)(c1ccc(Cl)cc1)c1ccc(Cl)cc1 (stereo not drawn) [CBK012146C] | 118.53 |
| COc1cc(C2C3=C(CC(C)(C)CC3=O)OC3=C2C(=O)CC(C)(C)C3)ccc1OCC(=O)O [CBK262379] | 121.439 |
| CCCCOc1nccnc1-c1ccc(C)c(C)c1 [CBK106870] | 100 |
| Cc1ccc(C(C)(C)C)c(OC(=O)c2cnc(C)cn2)c1 [CBK090261] | 105.626 |
| CN(C)CCCC(=O)NCc1ccc(-c2csnn2)cc1 [CBK149288] | 144.442 |
| O=C(Nc1ccc(CCO)cc1)c1cnc(-c2ccc(Cl)cc2)c(-c2ccco2)c1 [CBK037457] | 141.558 |
| Cc1c(O)cccc1Nc1cc(-c2cccc(N(C)C)c2)ncn1 [CBK036995] | 140.692 |
| CCN(CC)C(=O)Cn1nc(C)n2c(cc3sc(C)cc32)c1=O [CBK284064] | 117.139 |
| O=C(c1ccc(F)cc1)N1C[C@@H](c2ccsc2)[C@@H]2CN(Cc3ccccc3)CC[C@@H]21 [CBK285635] | 154.703 |
| Cc1csc(C(Cc2ccsc2)NCC2=CCCOC2)n1 (stereo not drawn) [CBK282439] | 119.201 |
| COc1ccc(C(=O)N2CC[C@H]3NC(=O)N(c4ccccc4)C(=O)[C@H]32)cc1 [CBK289281] | 124.911 |
| O=C1COc2ccccc2C/C=C/CC2(CCN(C(=O)CCc3cccnc3)CC2)CN1 [CBK292127] | 116.301 |
| CN(C)S(=O)(=O)NNC(=O)c1c[nH]c2ccccc12 [CBK267698] | 108.259 |
| COC(=O)c1c(O)noc1C [CBK023348] | 107.735 |
| O=C(Cn1nc(C(=O)O)c2ccccc2c1=O)NCc1ccc(Cl)cc1Cl [CBK295320] | 150.325 |
| COc1ccc(S(=O)(=O)N(C)CC(=O)N2CCN(Cc3ccccc3)CC2)cc1C [CBK268221] | 114.536 |
| CCC(Oc1cc(C)ccc1Cl)C(=O)Nc1sccc1C(N)=O (stereo not drawn) [CBK268152] | 108.893 |
| CCc1cc2cc3c(cc2nc1SCC(=O)Nc1cccc(C(C)=O)c1)OCO3 [CBK108551] | 100 |
| O=S(=O)(NCCCn1ccnc1)c1cccs1 [CBK269912] | 94.0795 |
| O=[N+]([O-])c1cccc(-c2ccc(-c3nn4c(Cc5ccccc5)nnc4s3)o2)c1 [CBK267310] | 169.541 |
| CCOC(=O)c1cnc(SCc2nc(N)nc(Nc3ccc(F)cc3)n2)nc1N [CBK098477] | 112.86 |
| Cn1c(=O)n(CCN2CCOCC2)c(=O)c2c1nc1n2CCN1c1ccccc1 [CBK269328] | 143.723 |

Arranged by number of heavy atoms (largest number first): three of the compounds above

| Compound | % of control remaining [%] |
| --- | --- |
| O=C(Nc1ccc(CCO)cc1)c1cnc(-c2ccc(Cl)cc2)c(-c2ccco2)c1 [CBK037457] | 141.558 |
| CCN(CC)C(=O)Cn1nc(C)n2c(cc3sc(C)cc32)c1=O [CBK284064] | 117.139 |
| CNC(=O)C1/C(=N\O)c2ccccc2N1C(C)=O (stereo not drawn) [CBK006569] | 105.748 |

Going on with the list.

| Compound | % of control remaining [%] |
| --- | --- |
| Cc1cc(C(=O)N2CCC(Cc3ccccc3-c3ccccc3)(C(=O)N(C)C)CC2)cs1 [CBK285676] | 96.787 |
| CC1(C(=O)N2CCc3onc(-c4ccccc4F)c3C2)CCCO1 (stereo not drawn) [CBK282660] | 101.031 |
| O=C(CN1C(=O)N2CCCN=C2c2ccccc21)NCc1ccccc1 [CBK284403] | 125.26 |
| Cc1ccc(NC(=O)C(=O)NCCCN2CCOCC2)cc1Cl [CBK264806] | 100 |
| O=C(CN1C(=O)CCC1=O)Nc1nc2ccccc2s1 [CBK287345] | 107.546 |
| COc1cc(C)c(-c2nc(C)nc(C)c2C)c(C)c1 [CBK306711] | 168.444 |
| O=C(CN1Cc2ccccc2C1)N1CCCC1c1nc2ccccc2[nH]1 (stereo not drawn) [CBK283710] | 146.759 |
| O=C(Cn1ncc2cccn2c1=O)c1ccc(F)cc1 [CBK283627] | 130.459 |
| O=C(NCCN1CCOCC1)c1sc2cc(F)ccc2c1Cl [CBK018212] | 78.7538 |
| N#Cc1nccnc1N1CCN(Cc2ccc3c(c2)OCO3)CC1 [CBK011284] | 135.955 |
| O=C(O)C1CCN(C(=O)NCc2ccc(F)cc2)CC1 [CBK156070] | 114.393 |
| COC(=O)[C@@H](C)NC(=O)[C@@H]1CN(C(=O)c2cccc(F)c2)CCN1C(=O)C1CCCCC1 [CBK289621] | 118.127 |
| CC(C)NC(=O)N1Cc2nc[nH]c2C[C@H]1c1nc(-c2ccc3c(c2)OCO3)no1 [CBK289001] | 130.157 |
| O=C(NC1CCCCC1)NS(=O)(=O)c1ccc(CCNC(=O)c2cccs2)cc1 [CBK011888] | 131.529 |
| CN(C)S(=O)(=O)c1ccc(C(=O)C2=C(O)C(=O)N(CCN3CCCCC3)C2c2cccnc2)cc1 (stereo not drawn) [CBK264700] | 109.906 |
| CCn1cc(C(=O)O)c(=O)c2cnc(N3CCN(C(=S)NC(=O)c4cccs4)CC3)nc21 [CBK265753] | 97.7576 |
| NC(=O)C1(Cc2ccc(-c3ccccc3)cc2)CCN(C(=O)COc2ccccc2)CC1 [CBK285773] | 124.237 |
| Cc1cccc2cc(CN(Cc3ccco3)C(=O)C3CCCCC3)c(O)nc12 [CBK269178] | 84.6674 |
| Cc1nn(C)c(N2CCNCC2)c1NC(=O)CN(C)C(=O)c1ccccc1 [CBK050255T] | 77.616 |
| CS(=O)(=O)Nc1nc2ccc(S(C)(=O)=O)cc2s1 [CBK092166] | 87.3523 |
| COc1ccccc1Cn1nc2nnc(-c3ccccc3)c(-c3ccccc3)n2c1=O [CBK286185] | 119.602 |
| CC(=O)N1C[C@@H](c2cccc(C)c2)[C@@H]2CN(CC3CC3)CC[C@@H]21 [CBK283372] | 149.184 |
| CNC(=O)C1CCN(Cc2ccc(-c3nnn(CC(=O)NCc4ccc(C)cc4)n3)cc2)CC1 [CBK153195T] | 98.912 |
| COc1ccc(C)cc1S(=O)(=O)Nc1cc(N2CCN(C(C)C)CC2)c2occc2c1 [CBK073625C] | 104.603 |
| O=C(c1nc[nH]n1)N1CCN(c2nccc(CCC(F)(F)F)n2)CC1 [CBK307306] | 100.874 |
| CCn1cc([C@H]2CN(C)C[C@@H]2N(C)C)c2ccccc21 [CBK285468] | 94.515 |

| Compound | % of control remaining [%] |
| --- | --- |
| COc1ccc(CCNC(=O)C2CCN(S(=O)(=O)c3ccccc3)CC2)cc1 [CBK264985] | 113.393 |
| O=C(c1cccc(F)c1)N1C2CCC1CC(O)(c1cccnc1F)C2 (stereo not drawn) [CBK284422] | 96.4504 |
| CC(C)Cc1ccc(-c2cc(Nc3ccc(O)cc3)ncn2)cc1 [CBK090754] | 177.815 |
| c1ccc2c3c([nH]c2c1)C12CCN(CC1)C(C1CCOC1)N2CC3 (stereo not drawn) [CBK284433] | 129.528 |
| c1c2c(cc3sc(N4CCOCC4)nc13)OCO2 [CBK287494] | 116.996 |
| CC(C)(C)OC(=O)N[C@@H](Cc1ccccc1)C(=O)NC[C@H]1CC[C@H](C(=O)O)CC1 [CBK286719] | 104.859 |
| NS(=O)(=O)c1ccc(C(=O)NCCc2c[nH]c3ccc(Cl)cc23)cc1 [CBK159780] | 111.942 |
| COC(=O)c1ccccc1NC(=O)CCSc1ccc(C)cc1 [CBK265958] | 111.974 |
| COC[C@@H]1CCCN1S(=O)(=O)c1ccc(Cl)c(Cl)c1 [CBK044313] | 105.767 |
| O=C(Cn1cncn1)N[C@H]1C2CCCCC2[C@@H]1c1ccccc1 (stereo partly drawn) [CBK283011] | 116.094 |
| O=C(C1CCCN(S(=O)(=O)c2ccc(F)cc2)C1)N(Cc1ccccc1)Cc1ccccc1 (stereo not drawn) [CBK267652] | 79.945 |
| CN(C)CCN(Cc1ccccc1)C(=O)NCc1ccc(C#N)cc1 [CBK155097] | 126.983 |
| Cc1ccc(-c2nnc(CNC(=O)Cc3ccccc3Cl)o2)s1 [CBK284648] | 147.769 |
| O=C(Cc1cc(C(=O)O)c2ccccc2n1)Nc1ccccc1 [CBK268227] | 128.245 |
| Cc1cc(NS(=O)(=O)c2ccc(F)cc2)n(C)n1 [CBK051021] | 109.111 |
| O=C(Nc1ccc(OCc2nc3ccccc3s2)cc1)c1cccc(I)c1 [CBK267843] | 89.7078 |
| CCCC/N=C(\NS(=O)(=O)c1ccc(C)cc1)OCC [CBK022731] | 93.8609 |
| COc1ccc(-c2sc(C(=O)O)c(C)c2C#N)cc1 [CBK019922] | 98.3965 |
| Cc1ccc(OC(C)C(=O)Nc2cc(C(C)(C)C)on2)cc1C (stereo not drawn) [CBK288251] | 117.424 |
| CC(C)(CNC(=O)CN1CCOCC1)NC(=O)OC(C)(C)C [CBK089350] | 120.345 |
| O=C1CCCC[C@]2(CN(Cc3ccccc3)C[C@H]2c2cccnc2)N1 [CBK283342] | 81.2687 |
| O=C(Cn1ccnc1)NC(Cc1cccs1)c1nccs1 (stereo not drawn) [CBK285092] | 140.041 |
| COc1ccc(N2C(=O)CC(Nc3cc(C(=O)O)ccc3C)C2=O)c(OC)c1 (stereo not drawn) [CBK296650] | 127.252 |
| COc1cccc(CC(=O)N2CCC(Cc3cccc(-c4cccs4)c3)(C(N)=O)CC2)c1 [CBK285738] | 160.789 |
| COc1cc(CNCc2cccnc2)cc(Cl)c1OCc1cccs1 [CBK270026C] | 76.8738 |
| Cn1ccnc1C1(O)CCN(C(=O)NCc2ccccc2)CC1 [CBK282276] | 116.564 |
